Measured values published in patent publication US20040014131A1 (Pfizer Inc., priority 2002, published 2004).

Test: general procedure: Fmoc solid-phase peptide synthesis; FMOC-PAL-PEG-PS resin; HBTU

Row | Substance | conjugation yield (conjugation step) [%] | crude mass (whole synthesis) [mg] | crude yield (whole synthesis, scale of the general procedure 0.25 mmol) [%]
1 | 5-carboxyfluorescein-Gly-Gly-dPhe-Leu-Arg-Arg-Val-Cys(5-(and 6)tetramethylrhodamine)-βAla-NH2 | 8 |  | 
2 | 5-carboxyfluorescein-Gly-Gly-dPhe-Leu-Arg-Arg-Val-Cys(H)-βAla-NH2 |  | 50 | 54
